{
  "source": "patent US9415107B2",
  "about": "“Compositions and methods for the treatment of addiction and other neuropsychiatric disorders” (priority 2005, dated 2016)",
  "assay": "Pharmacokinetic interaction between cocaine, metyrapone and oxazepam (plasma concentrations by GCMS)",
  "conditions": "ip co-administration",
  "data": [
    {"smiles": "O=C1Nc2ccc(Cl)cc2C(c2ccccc2)=NC1O", "note": "(stereo not shown) [oxazepam]", "values": [
      {"measurement": "effect on plasma concentrations of each other (metyrapone, oxazepam)", "result": "did not influence plasma concentrations of each other"}
    ]}
  ]
}
